# The whole screen tested about 320,000 compounds, of which about 22,000 (6.9%) were called active. Inconclusive results, whose numbers are uncertain, are shown with a selection of clear calls. Calls follow the shape of the dose curve; as a rule, active = well fitted inhibition curve with a large enough effect; inconclusive = small, poorly fitted or top-dose-only effect, or another doubt; inactive = no such curve, though single readings can be large or run the other way. Potencies beside an inconclusive call are fits to weak or partial responses and may not hold up.
# Experiment: Primary qHTS for delayed death inhibitors of the malarial parasite plastid, 96 hour incubation
# Details: P. falciparum luciferase reporter growth; series mostly up to 28.7 µM
# Summary of the method: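 Two-generation exposure (96 h) targets delayed-death phenotype. Reporter parasites carrying integrated firefly luciferase, in red cells at 2% hematocrit and 0.05% parasitemia final, kept at 37 C, 5% CO2; luminescence loss indicates inhibition.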
# Potency is read from the fitted curve at half-maximal effect.
row,SMILES,Potency
1,CN(C)c1ccc(C(CNS(=O)(=O)c2ccc([N+](=O)[O-])cc2)N2CCCC2)cc1 (stereo not drawn),"inconclusive: 10.4 µM [inhibitor, single point]"
2,CC(=O)Nc1nnc(SCC(=O)N2C(C)CCCC2C)s1 (stereo not drawn),active: 11.7 µM
3,CSc1nc(N(C)NC(=O)c2ccc(F)cc2)c2ccccc2n1,active: 2.33 µM
4,CC(C)C1N=C2c3ccccc3N=C(SCC#N)N2C1=O (stereo not drawn),"inconclusive: 0.0037 µM [inhibitor, full curve]"
5,CC(C)(C)C(=O)Nc1cccc(-c2cc(-c3c(Cl)cccc3Cl)no2)c1,"inconclusive: 9.28 µM [inhibitor, partial curve, poor fit]"
6,CC(C)(C)c1ccc(OCCC(=O)OCC(=O)N2c3ccccc3NC(=O)C2(C)C)cc1,inactive
7,Cc1ccc(N2C(=O)CS(=O)C(c3ccccc3)C2=O)cc1C (stereo not drawn),inactive
8,CCOc1cc(-c2noc(CCC(=O)Nc3cccnc3)n2)ccc1OC,inactive
9,O=C(Nc1nc(-c2ccccn2)cs1)c1cc(Cl)ccc1[N+](=O)[O-],active: 2.33 µM
10,CCCOc1ccccc1N1C(=O)CC(N(O)c2ccccc2)C1=O (stereo not drawn),inactive
11,COc1ccc(-n2cnc3cc(NS(=O)(=O)c4ccccc4)ccc32)cc1,"inconclusive: 10.4 µM [inhibitor, partial curve, poor fit]"
12,COc1ccc(OC)c(NC(=O)COC(=O)c2n[nH]c3ccccc23)c1,inactive
13,Cn1nc(C(F)(F)F)c(-c2cccc(C(F)(F)F)c2)c1NC(=O)Nc1ccc(F)cc1,active: 1.31 µM
14,COc1ccccc1N(C)S(=O)(=O)c1ccc(Cl)c(C(=O)NC2=NCCS2)c1,"inconclusive: 18.5 µM [inhibitor, single point]"
15,O=C1c2ccccc2C(=O)N1CCCCn1c(=O)oc2ccccc21,"inconclusive: 11.7 µM [inhibitor, single point]"
16,O=C(Nc1ccc2c3c(cccc13)CC2)c1cccc([N+](=O)[O-])c1,"inconclusive: 14.7 µM [inhibitor, single point]"
17,c1cc[n+](CCCC[n+]2ccccc2)cc1,inactive
18,O=C(CC12CC3CC(CC(C3)C1)C2)NCC(c1ccc(F)cc1)N1CCOCC1 (stereo not drawn),active: 11.7 µM
19,COc1ccccc1CNC(=O)C(=O)c1cn(CC(=O)N2CCCC2)c2ccccc12,"inconclusive: 18.5 µM [inhibitor, single point]"
20,CCC(=O)N1CCn2c1nc1ccccc12,inactive
21,O=C(c1ccccc1Cl)N(Cc1ccccc1F)N1C(=O)CCCC1=O,"inconclusive: 0.0828 µM [inhibitor, full curve, poor fit]"
22,O=C(O)c1cccc(NC(=S)NC(=O)c2ccncc2)c1,active: 9.28 µM
23,C=CCNC(=O)/C=C/c1c(F)cccc1Cl,inactive
24,Cc1ccc(C)c(N2CCN(C(=O)CCS(=O)(=O)c3ccc4c(c3)CCN4C(=O)C3CC3)CC2)c1,inactive
25,COCCn1c(SCC(=O)Nc2ccc(OC)c(S(N)(=O)=O)c2)nc2ccccc21,"inconclusive: 18.5 µM [inhibitor, partial curve, poor fit]"

row,SMILES,Potency
1,CCCCc1nc2cc(C(=O)N3CCCCC3CCO)ccc2o1 (stereo not drawn),"inconclusive: 18.5 µM [inhibitor, single point]"
2,COc1cccc(CNc2ccc(C(=O)O)cc2)c1OCc1ccccc1,"inconclusive: 18.5 µM [inhibitor, single point]"
3,CC1=C(C(=O)OCc2ccccc2)C(c2ccc(C(F)(F)F)cc2)NC(=O)N1CCCCCC(=O)O (stereo not drawn),active: 13.1 µM
4,NC(=O)C1CCN(c2nc(-c3ccc(Cl)cc3)cs2)CC1,inactive
5,CC(C)CC1NC(=O)N(CCCCN2C(=O)c3ccccc3C2=O)C1=O (stereo not drawn),"inconclusive: 5.22 µM [inhibitor, single point]"
6,COc1cc(C2=NOC(C(=O)N3CCCc4ccccc43)C2)cc(OC)c1OC (stereo not drawn),inactive
7,CC(C)=CCOc1ccc2c(C)c(CC(=O)N3C[C@H]4C[C@@H](C3)c3cccc(=O)n3C4)c(=O)oc2c1C,active: 9.28 µM
8,CC(C)(C)NS(=O)(=O)c1ccc(NC(=S)NC(=O)C2CC2)cc1,"inconclusive: 5.22 µM [inhibitor, partial curve]"
9,CCCCCCN1CC(=O)N2Cc3[nH]c4ccccc4c3C[C@H]2C1=O,"inconclusive: 18.5 µM [inhibitor, single point]"
10,CC1CCCCN1S(=O)(=O)c1ccc(C(=O)Nc2nnc(C3CC3)o2)cc1 (stereo not drawn),active: 11.7 µM
11,CCCNc1nc(N2CCCC2)nc(N2CCCC2)n1,"inconclusive: 18.5 µM [inhibitor, single point]"
12,COc1ccc(NC(=O)Nc2c(C)noc2-c2ccccc2)cc1,"inconclusive: 10.4 µM [inhibitor, single point]"
13,C/C(=N\NC(=O)CNc1cccc(Cl)c1C)C1CC1,inactive
14,COc1cc(NC(=O)CCS(=O)(=O)c2ccc3nc(C)sc3c2)cc(OC)c1OC,"inconclusive: 1.65 µM [inhibitor, full curve, poor fit]"
15,O=C(c1cc2ccccn2n1)N1CCC2(CC1)OCCO2,"inconclusive: 18.5 µM [inhibitor, partial curve, poor fit]"
16,CCCOc1cc(CN2CCCCC2)cc(C(C)=O)c1,active: 9.28 µM
17,CNC(=O)c1cccn(Cc2cc(C(F)(F)F)cc(C(F)(F)F)c2)c1=O,"inconclusive: 3.7 µM [inhibitor, full curve, poor fit]"
18,CC(Oc1cccc(Cl)c1)C(=O)NCc1ccc(S(N)(=O)=O)cc1 (stereo not drawn),"inconclusive: 18.5 µM [inhibitor, single point]"
19,CCN(CCn1cccn1)C(=O)c1cc(COc2cc(C)ccc2C)on1,"inconclusive: 0.828 µM [inhibitor, full curve]"
20,O=C(NCCCN1CCCC1)c1cc(Sc2ccc(F)cc2)nc2ccccc12,inactive
21,COc1ccc(OCCn2c(=O)sc3ccccc32)cc1,active: 2.94 µM
22,CCCCNC(=O)c1cn(C)c2ccc(S(=O)(=O)N3CC(C)CC(C)C3)cc2c1=O (stereo not drawn),inactive
23,Cc1ccc(NC(=O)CN(c2cc(C)cc(C)c2)S(=O)(=O)c2c(C)noc2C)nc1,"inconclusive: 18.5 µM [inhibitor, single point]"
24,CCn1cc(C(=O)OCC(=O)Nc2ccc(S(=O)(=O)N3CCCC3)cc2)c(=O)c2ccc(C)nc21,"inconclusive: 18.5 µM [inhibitor, single point]"
25,CC1CN(C)CCC1OC(=O)c1ccccc1 (stereo not drawn),active: 2.08 µM

row,SMILES,Potency
1,Cc1ccc(Cl)cc1N1CCN(Cc2nc3ccsc3c(=O)[nH]2)CC1,"inconclusive: 10.4 µM [inhibitor, single point]"
2,Cc1ccc2nc(Cl)c3cc(C(=O)N(CCN(C)C)Cc4ccco4)sc3c2c1,"inconclusive: 18.5 µM [inhibitor, single point]"
3,CC(C)CCN1CCN(Cc2cccs2)CC1CCO (stereo not drawn),"inconclusive: 10.4 µM [inhibitor, single point]"
4,Cc1cccc(/N=C/c2sc3ccccc3c2O)n1,"inconclusive: 18.5 µM [inhibitor, single point]"
5,Cc1ccc(CN2C(=O)C3CCCN3c3ncccc32)cc1 (stereo not drawn),"inconclusive: 4.15 µM [inhibitor, partial curve]"
6,COc1ccc(N(C(=O)C(C)C)S(=O)(=O)c2cccc([N+](=O)[O-])c2)cc1,"inconclusive: 13.1 µM [inhibitor, partial curve, poor fit]"
7,O=C(NC1CCCC1)C(c1ccccn1)N(Cc1ccccc1F)C(=O)c1csnn1 (stereo not drawn),inactive
8,Cc1ccc(NC(=O)C(C)c2cccc(C(=O)c3ccccc3)c2)cc1O (stereo not drawn),"inconclusive: 16.5 µM [inhibitor, single point]"
9,Cc1ccc2c(c1)CCCN2C(=O)c1cc2ccccc2oc1=O,"inconclusive: 13.1 µM [inhibitor, partial curve, poor fit]"
10,O=C(CN1CCN(c2ccc(F)cc2)CC1)c1cccs1,inactive
11,Oc1ccc(C=NC2CCCCC2)c(O)c1,active: 10.4 µM
12,COc1ccc(C(=O)CSc2ccc(-c3ccccc3)nn2)cc1,"inconclusive: 11.7 µM [inhibitor, single point]"
13,CCOC(=O)Cn1nnnc1C(CC)N(Cc1cccs1)Cc1cc2ccc(OC)cc2[nH]c1=O (stereo not drawn),"inconclusive: 0.522 µM [inhibitor, full curve, poor fit]"
14,Cc1cc(C)c2nc(NC(=O)c3ccc([N+](=O)[O-])o3)sc2c1,"inconclusive: 18.5 µM [inhibitor, single point]"
15,CC(=O)Nc1ccc(NC(=O)CSc2nnc(C3CC3)n2-c2ccccc2)cc1,inactive
16,COc1ccc(CC(=O)NNc2ncnc3c2cnn3-c2ccc(C)cc2)cc1,inactive
17,COc1ccc(C2OC(=O)CC2C(=O)NC(C)C)cc1 (stereo not drawn),active: 0.586 µM
18,CNC[C@H](NC[C@@H](NCCCc1ccccc1)c1ccccc1)[C@H](C)O,"inconclusive: 6.57 µM [inhibitor, partial curve, poor fit]"
19,O=C(COC(=O)c1cc([N+](=O)[O-])ccc1NCc1ccccc1)NCc1ccccc1Cl,"inconclusive: 18.5 µM [inhibitor, single point]"
20,O=C(OC1Cn2c(=O)ccc(=O)n2C1)c1ccccc1,inactive
21,Cc1ccc(S(=O)(=O)N2CCN(C(=O)CSC3CCCC3)CC2)c(C)c1,"inconclusive: 18.5 µM [inhibitor, single point]"
22,COc1ccc(S(=O)(=O)Nc2cccc(-c3ccc(N4CCCCCC4)nn3)c2)c(OC)c1,"inconclusive: 10.4 µM [inhibitor, single point]"
23,CN(CC(=O)Nc1ccccc1Br)C(=O)c1cccn1C,inactive

# A second format for part of the listing above.
row	SMILES	Potency
14	Cc1cc(C)c2nc(NC(=O)c3ccc([N+](=O)[O-])o3)sc2c1	inconclusive: 18.5 µM [inhibitor, single point]
18	CNC[C@H](NC[C@@H](NCCCc1ccccc1)c1ccccc1)[C@H](C)O	inconclusive: 6.57 µM [inhibitor, partial curve, poor fit]
19	O=C(COC(=O)c1cc([N+](=O)[O-])ccc1NCc1ccccc1)NCc1ccccc1Cl	inconclusive: 18.5 µM [inhibitor, single point]
22	COc1ccc(S(=O)(=O)Nc2cccc(-c3ccc(N4CCCCCC4)nn3)c2)c(OC)c1	inconclusive: 10.4 µM [inhibitor, single point]
23	CN(CC(=O)Nc1ccccc1Br)C(=O)c1cccn1C	inactive
